Results: the supplement of paper PMC10849652
The list shows a part of the results.

By UniProt entry, the sequences of proteins in these tests, tags left out. Where a name states a change or a piece, a line headed by the entry shows the natural chain unless it says otherwise.
UniProt Q9NNX1: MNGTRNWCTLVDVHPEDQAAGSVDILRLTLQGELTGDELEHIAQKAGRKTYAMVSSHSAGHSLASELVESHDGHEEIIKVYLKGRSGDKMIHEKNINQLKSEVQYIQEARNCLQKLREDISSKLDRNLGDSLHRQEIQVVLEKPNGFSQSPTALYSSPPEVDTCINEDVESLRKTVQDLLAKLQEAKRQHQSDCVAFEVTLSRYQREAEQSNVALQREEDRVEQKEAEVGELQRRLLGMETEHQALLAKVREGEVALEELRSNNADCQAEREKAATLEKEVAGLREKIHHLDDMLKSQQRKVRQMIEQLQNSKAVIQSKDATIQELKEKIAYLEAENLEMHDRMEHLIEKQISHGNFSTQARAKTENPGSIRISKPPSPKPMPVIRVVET
UniProt A2RUC4: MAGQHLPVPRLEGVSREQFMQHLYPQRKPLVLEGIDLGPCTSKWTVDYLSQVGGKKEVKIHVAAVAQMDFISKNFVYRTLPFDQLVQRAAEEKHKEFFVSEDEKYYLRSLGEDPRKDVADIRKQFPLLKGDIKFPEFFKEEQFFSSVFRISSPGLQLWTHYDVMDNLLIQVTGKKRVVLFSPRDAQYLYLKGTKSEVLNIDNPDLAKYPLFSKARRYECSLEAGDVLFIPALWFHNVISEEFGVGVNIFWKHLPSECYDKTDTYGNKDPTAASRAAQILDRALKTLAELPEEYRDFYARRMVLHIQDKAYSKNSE
UniProt Q86VQ3: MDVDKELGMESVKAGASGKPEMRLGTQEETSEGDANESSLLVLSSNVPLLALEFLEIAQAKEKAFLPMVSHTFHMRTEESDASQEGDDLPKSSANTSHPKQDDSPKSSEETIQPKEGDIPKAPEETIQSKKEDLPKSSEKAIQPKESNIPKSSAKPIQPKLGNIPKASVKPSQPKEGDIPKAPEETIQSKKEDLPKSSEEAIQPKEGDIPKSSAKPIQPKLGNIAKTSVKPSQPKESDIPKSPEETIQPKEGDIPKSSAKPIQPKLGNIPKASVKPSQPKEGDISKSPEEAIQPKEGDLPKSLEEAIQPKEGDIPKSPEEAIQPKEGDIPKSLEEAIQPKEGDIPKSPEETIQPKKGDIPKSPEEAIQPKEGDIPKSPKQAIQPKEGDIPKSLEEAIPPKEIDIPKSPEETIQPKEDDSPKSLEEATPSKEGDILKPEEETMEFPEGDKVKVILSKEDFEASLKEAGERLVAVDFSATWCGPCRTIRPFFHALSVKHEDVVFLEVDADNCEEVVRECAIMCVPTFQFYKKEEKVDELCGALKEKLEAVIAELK
UniProt Q96LJ8: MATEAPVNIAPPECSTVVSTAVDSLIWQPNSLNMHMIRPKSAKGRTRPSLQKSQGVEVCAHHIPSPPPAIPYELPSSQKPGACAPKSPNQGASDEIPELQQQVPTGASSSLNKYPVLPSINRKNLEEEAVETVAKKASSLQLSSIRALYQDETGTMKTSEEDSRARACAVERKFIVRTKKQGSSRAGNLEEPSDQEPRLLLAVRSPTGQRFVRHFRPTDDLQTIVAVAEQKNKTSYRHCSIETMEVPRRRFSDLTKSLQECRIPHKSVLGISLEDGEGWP
UniProt O15042: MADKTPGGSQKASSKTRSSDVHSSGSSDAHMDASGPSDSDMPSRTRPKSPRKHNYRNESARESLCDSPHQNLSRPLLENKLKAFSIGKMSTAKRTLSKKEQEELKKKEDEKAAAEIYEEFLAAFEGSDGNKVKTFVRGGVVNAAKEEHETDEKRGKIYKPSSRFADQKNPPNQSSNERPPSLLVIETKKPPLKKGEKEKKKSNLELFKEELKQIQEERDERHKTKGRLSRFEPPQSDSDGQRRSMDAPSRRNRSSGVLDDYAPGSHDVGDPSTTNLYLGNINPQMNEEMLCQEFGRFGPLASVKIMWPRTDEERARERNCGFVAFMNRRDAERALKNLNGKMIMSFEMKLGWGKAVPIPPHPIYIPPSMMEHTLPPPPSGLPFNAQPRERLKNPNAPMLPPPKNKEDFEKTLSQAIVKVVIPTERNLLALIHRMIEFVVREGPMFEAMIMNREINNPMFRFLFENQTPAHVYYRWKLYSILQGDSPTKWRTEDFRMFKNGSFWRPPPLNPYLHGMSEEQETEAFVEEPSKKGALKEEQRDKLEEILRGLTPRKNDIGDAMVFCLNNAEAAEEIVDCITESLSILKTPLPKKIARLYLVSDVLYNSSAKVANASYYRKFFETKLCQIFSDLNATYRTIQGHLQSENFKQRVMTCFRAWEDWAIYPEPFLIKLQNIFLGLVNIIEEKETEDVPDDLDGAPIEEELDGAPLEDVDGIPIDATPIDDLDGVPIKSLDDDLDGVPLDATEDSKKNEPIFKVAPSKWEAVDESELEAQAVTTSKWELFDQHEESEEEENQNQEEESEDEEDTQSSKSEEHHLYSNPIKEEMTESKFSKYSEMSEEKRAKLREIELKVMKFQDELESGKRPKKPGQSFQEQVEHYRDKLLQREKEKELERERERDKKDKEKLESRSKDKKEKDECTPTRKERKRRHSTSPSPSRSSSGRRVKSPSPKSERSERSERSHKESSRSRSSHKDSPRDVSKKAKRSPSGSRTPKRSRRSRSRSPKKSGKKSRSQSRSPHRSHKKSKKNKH
UniProt Q16881, whole entry, looked up: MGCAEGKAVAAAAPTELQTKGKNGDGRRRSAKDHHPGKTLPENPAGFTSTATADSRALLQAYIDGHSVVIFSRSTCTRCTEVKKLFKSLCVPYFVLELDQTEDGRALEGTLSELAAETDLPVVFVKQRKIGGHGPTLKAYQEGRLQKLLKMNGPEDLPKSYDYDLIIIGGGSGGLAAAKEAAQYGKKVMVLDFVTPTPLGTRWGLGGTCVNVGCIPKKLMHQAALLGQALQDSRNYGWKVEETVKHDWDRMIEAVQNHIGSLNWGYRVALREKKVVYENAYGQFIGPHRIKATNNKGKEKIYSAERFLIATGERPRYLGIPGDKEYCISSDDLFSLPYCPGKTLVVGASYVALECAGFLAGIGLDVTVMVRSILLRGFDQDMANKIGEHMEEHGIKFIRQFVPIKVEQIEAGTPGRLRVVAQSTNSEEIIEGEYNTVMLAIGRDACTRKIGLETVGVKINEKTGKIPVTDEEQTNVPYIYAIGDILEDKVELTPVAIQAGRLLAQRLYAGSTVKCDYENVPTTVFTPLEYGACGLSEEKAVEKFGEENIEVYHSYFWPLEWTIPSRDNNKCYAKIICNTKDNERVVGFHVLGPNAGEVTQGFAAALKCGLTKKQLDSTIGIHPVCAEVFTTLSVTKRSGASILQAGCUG
UniProt Q9NPG3, whole entry, looked up: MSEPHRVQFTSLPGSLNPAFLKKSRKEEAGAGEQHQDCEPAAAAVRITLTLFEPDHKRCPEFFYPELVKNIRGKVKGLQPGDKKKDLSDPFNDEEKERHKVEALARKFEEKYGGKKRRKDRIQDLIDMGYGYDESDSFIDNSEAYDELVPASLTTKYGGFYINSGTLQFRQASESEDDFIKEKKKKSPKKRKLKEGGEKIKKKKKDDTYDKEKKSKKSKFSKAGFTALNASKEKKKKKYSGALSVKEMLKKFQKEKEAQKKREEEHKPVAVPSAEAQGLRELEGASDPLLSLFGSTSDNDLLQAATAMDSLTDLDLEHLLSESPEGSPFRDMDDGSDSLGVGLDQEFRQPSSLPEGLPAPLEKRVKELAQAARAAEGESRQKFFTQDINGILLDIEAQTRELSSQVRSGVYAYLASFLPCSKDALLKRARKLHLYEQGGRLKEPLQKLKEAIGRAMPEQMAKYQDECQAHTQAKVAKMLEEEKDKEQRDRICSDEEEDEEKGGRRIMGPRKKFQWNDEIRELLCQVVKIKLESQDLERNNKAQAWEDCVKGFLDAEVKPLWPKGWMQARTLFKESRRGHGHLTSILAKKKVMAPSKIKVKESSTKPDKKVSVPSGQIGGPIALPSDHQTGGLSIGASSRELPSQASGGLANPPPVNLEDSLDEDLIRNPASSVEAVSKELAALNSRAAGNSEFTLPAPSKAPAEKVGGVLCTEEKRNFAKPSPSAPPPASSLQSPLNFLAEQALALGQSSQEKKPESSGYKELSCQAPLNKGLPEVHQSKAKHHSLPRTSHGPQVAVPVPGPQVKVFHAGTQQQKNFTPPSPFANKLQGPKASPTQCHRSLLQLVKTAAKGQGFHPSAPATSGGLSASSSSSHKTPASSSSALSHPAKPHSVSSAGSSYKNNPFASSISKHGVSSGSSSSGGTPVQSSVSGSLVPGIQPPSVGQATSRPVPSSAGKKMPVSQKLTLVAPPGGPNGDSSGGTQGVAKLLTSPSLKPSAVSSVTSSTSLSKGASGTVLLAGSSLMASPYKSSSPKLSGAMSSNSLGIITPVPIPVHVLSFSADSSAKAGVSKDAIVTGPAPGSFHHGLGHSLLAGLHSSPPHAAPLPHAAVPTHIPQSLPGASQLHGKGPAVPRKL
UniProt Q8NBM4: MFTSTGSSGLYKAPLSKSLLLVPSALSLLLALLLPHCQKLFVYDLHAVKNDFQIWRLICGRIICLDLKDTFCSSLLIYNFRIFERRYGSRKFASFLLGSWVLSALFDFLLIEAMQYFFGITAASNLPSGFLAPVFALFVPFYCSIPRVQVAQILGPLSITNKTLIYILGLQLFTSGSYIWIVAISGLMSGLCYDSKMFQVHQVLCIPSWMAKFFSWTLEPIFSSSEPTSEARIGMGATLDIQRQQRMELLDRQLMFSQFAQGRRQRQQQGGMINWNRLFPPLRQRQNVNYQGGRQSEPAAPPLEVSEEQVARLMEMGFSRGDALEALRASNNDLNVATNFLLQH
UniProt Q9P2K2: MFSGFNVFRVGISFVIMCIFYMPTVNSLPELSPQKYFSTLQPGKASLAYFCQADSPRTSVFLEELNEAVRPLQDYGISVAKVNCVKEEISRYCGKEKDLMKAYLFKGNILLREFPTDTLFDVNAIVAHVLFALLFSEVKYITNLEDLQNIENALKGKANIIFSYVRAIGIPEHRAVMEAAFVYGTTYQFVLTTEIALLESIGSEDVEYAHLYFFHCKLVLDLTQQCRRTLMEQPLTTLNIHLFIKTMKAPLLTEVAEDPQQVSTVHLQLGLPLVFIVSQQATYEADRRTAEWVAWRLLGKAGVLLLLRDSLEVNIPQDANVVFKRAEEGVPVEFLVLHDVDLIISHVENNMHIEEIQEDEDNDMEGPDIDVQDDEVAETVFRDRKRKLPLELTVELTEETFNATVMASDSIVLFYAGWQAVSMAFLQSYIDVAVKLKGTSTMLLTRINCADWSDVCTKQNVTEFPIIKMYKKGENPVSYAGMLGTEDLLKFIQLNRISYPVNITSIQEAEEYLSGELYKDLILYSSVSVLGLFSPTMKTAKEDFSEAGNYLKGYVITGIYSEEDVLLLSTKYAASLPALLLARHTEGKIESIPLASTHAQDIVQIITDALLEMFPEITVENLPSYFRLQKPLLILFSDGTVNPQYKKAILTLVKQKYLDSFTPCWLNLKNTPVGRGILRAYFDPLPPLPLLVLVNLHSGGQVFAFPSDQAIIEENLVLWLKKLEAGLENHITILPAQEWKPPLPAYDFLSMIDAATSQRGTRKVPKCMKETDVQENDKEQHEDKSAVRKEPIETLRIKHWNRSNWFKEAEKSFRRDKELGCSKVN
UniProt Q9UMX0, whole entry, looked up: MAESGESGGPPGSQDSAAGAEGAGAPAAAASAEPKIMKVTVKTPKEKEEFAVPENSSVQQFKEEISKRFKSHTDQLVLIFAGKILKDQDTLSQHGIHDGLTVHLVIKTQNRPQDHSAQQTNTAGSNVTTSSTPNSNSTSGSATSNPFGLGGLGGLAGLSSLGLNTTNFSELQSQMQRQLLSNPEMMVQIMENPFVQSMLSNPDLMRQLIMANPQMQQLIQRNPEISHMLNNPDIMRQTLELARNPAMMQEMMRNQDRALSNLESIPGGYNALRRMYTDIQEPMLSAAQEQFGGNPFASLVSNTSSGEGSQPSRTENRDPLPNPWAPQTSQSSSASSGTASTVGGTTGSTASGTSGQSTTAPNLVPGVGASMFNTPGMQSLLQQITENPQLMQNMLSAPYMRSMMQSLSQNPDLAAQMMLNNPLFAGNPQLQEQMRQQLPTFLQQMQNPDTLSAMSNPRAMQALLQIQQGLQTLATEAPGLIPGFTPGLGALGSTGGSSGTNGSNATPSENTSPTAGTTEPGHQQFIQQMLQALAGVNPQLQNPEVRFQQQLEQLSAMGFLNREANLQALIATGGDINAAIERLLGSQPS
UniProt O14530: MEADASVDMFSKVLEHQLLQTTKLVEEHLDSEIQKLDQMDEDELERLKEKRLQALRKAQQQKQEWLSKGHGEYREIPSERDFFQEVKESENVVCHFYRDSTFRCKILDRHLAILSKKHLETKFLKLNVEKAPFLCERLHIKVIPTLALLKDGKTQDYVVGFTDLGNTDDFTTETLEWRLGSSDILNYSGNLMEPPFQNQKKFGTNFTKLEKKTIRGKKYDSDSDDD
UniProt P68543: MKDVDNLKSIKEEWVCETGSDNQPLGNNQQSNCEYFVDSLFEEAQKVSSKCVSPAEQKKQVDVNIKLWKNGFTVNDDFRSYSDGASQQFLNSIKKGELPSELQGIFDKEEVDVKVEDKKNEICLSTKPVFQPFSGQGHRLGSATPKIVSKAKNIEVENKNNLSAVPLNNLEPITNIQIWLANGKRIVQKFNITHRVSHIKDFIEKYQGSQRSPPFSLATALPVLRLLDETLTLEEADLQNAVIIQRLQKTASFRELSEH

These targets were tested with Cc1cn(-c2cc(NC(=O)c3ccc(C)c(Nc4nccc(-c5cccnc5)n4)c3)cc(C(F)(F)F)c2)cn1 [nilotinib] (assay: log2 fold change, soluble protein after heating vs DMSO (PISA); higher = thermal stabilisation; K562 lysate, 10 uM; active = over 0.2 and 3.5 SD of the protein, either way, in both replicates (recomputed)).
Method in brief: (§1)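 Dounce homogenisation of K562 pellets in PBS pH 7.4 with 1 mM MgCl2 produced a crude extract, used at 1 mg/mL protein. Exposure to 10 μM compound lasted 30 min, and aliquots were then heated for 3 min across 48°C-58°C, pooled and brought to 0.5% NP-40 at 4°C. The supernatant after 21,000xg for 90 min was quantified by TMTpro 16plex LC-MS/MS with channel sums equalised. Duplicate values are given as log-two fold change in thermal stability relative to solvent controls.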

log2 fold change, inactive:
TUFT1 (UniProt Q9NNX1) -0.047
U2AF2 (UniProt K7ELP8) -0.062
UBE2K (UniProt D6RDM7) -0.33
UBAP2 (UniProt Q5JV08) -0.211
TYW5 (UniProt A2RUC4) -0.026
UBXN7 (UniProt H7BYF4) -0.229
TXNDC2 (UniProt Q86VQ3) 0.237
TUBB6 (UniProt K7ES63) -0.051

The targets below were run with Cc1nc(Nc2n[nH]c3c2CN(C(=O)N[C@H](CN(C)C)c2ccccc2)C3(C)C)c2sccc2n1 in the same assay as above.
Method in brief: as §1

log2 fold change, inactive:
TUFT1 (UniProt Q9NNX1) -0.013
U2AF2 (UniProt K7ELP8) -0.01
UBE2K (UniProt D6RDM7) -0.058
UBAP2 (UniProt Q5JV08) 0.172
TYW5 (UniProt A2RUC4) 0.063
UBXN7 (UniProt H7BYF4) 0.146
TXNDC2 (UniProt Q86VQ3) -0.036
TUBB6 (UniProt K7ES63) 0.112

These targets were tested with Cc1nc(Nc2ncc(C(=O)Nc3c(C)cccc3Cl)s2)cc(N2CCN(CCO)CC2)n1 [dasatinib] in the same assay as above.
Method in brief: as §1

log2 fold change, inactive:
UBXN10 (UniProt Q96LJ8) -0.007
UBR4 isoform 4 (UniProt Q5T4S7) -0.083
U2SURP isoform 2 (UniProt O15042) 0.095
TXNRD1 isoform 7 (UniProt Q16881) 0.052
UBN1 (UniProt Q9NPG3) 0.208
UBAC2 (UniProt Q8NBM4) 0.086
TXNDC16 (UniProt Q9P2K2) 0.156
UCHL5 (UniProt Q5LJA9) -0.214
UBE2I (UniProt H3BQQ9) -0.005
UBQLN1 isoform 2 (UniProt Q9UMX0) 0.096
TXNDC9 isoform 2 (UniProt O14530) -0.058
UBXN2A (UniProt P68543) 0.142

Three records picked at random from those above:
log2 fold change, inactive:
TXNDC9 isoform 2 (UniProt O14530) -0.058
TXNDC16 (UniProt Q9P2K2) 0.156
UBXN2A (UniProt P68543) 0.142

These targets were tested with Cc1ncc(-c2ccnc(Nc3ccc(S(C)(=O)=O)cc3)n2)n1C(C)C in the same assay as above.
Method in brief: as §1

log2 fold change, inactive:
TUFT1 (UniProt Q9NNX1) 0.051
U2AF2 (UniProt K7ELP8) -0.143
UBE2K (UniProt D6RDM7) 0.044
UBAP2 (UniProt Q5JV08) 0.104
TYW5 (UniProt A2RUC4) -0.106
UBXN7 (UniProt H7BYF4) 0.196
TXNDC2 (UniProt Q86VQ3) 0.015
TUBB6 (UniProt K7ES63) -0.155
